The assay concerns the target human CD25 (IL-2Rα) (human) (UniProt P01589). The assay can be described thus: Biacore SPR, human CD25 captured on the chip, IL-2 variant as analyte, pH 7.4 and pH 6.0. (In general: SPR reads the build-up and loss of mass on a sensor chip optically.)

Sequences of proteins named here, by UniProt entry; tags and fusion partners are left off. Residues count along the entry.
UniProt P01589, residues 22-213: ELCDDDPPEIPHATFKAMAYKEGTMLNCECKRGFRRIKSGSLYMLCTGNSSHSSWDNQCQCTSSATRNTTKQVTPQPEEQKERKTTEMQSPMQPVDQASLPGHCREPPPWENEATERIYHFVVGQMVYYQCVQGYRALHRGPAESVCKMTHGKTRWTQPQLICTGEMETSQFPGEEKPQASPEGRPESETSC

The values below come from US20250092108A1.

No constants are given. Whether binding was seen depends on the method and setting. Some entries that bind do so weakly or less than the wild type.

B1: XENP14381 (prior art IL-2 variant, mutant 2-4 with Q126T, with R38L) (ligand)
chain: APTSSSTKKTQLQLEHLLLDLQMILNGISNHKNPRLALMLTFKFYMPEKATELKHLQCLEEELKPLEEALRLAPSKNFHLRPRDLISDVNVIVLELKGSETTFMCEYADETATIVEFLNRWITFSTSIISTLTHHHHHHHH
Turning to B1, the binding entry is recorded as “binds”.
